Measured values as given in the supplement of paper PMC12067093, “Discovery and optimisation of a covalent ligand for TRIM25 and its application to targeted protein ubiquitination” (Chemical Science, 2025).
The other results are listed elsewhere or left out.

Compound: Cc1cc(ccc1-c1ccccc1)C(=O)N1CCCN(CC1)C(=O)CCl [compound 10]
Assay: probe-labelled cysteine peptide fold change vs DMSO (competition) (log2 fold change); higher = less target engagement (more negative = stronger competition)
Conditions: THP-1, incubation time: 4 h
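Further: competitive profiling in live THP-1 cells: cysteine peptides tagged with an iodoacetamide desthiobiotin (IA-DTB) probe, intensity after compound treatment relative to DMSO-treated cells.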

Target | probe-labelled cysteine peptide fold change (10 µM) | probe-labelled cysteine peptide fold change (50 µM)
GMPS_P49915_523_TVGVQGDCR (UniProt P49915) | -0.066 | -0.217
GLOD4_Q9HC38_269_ATVQVVILADPDGHEICFVGDEAFR (UniProt Q9HC38) | 0.114 | 0.438
GPATCH1_Q9BRR8_485_AQLSPAAAAGHCSWNMALGGGTATLK (UniProt Q9BRR8) | -0.0776 | -1.25
GPHN_Q9NQX3_154_KGSQECFQFILPALPHAIDLLR (UniProt Q9NQX3) | -0.132 | -0.149
GPS1_Q13098_175_RGHDDLGDHYLDCGDLSNALK (UniProt Q13098) | -0.0362 | -0.243
GLS_O94925_518+525_GIHFCHDLVSLCNFHNYDNLR (UniProt O94925) | 0.00116 | -0.0408
GMIP_Q9P107_571_CTAEIEHR (UniProt Q9P107) | 0.206 | 0.262
GMFG_O60234_87+96_YVHDDGRVSYPLCFIFSSPVGCKPEQQMMYAGSK (UniProt O60234) | -0.295 | -0.824
GPA33_Q99795_43_SVTLPCTYHTSTSSR (UniProt Q99795) | -0.0898 | 0.194
GLA_P06280_382_GVACNPACFITQLLPVK (UniProt P06280) | -0.104 | 0.17
GLO1_Q04760_61_CDFPIMK (UniProt Q04760) | -0.0342 | 0.0211
GMPS_P49915_530_SYSYVCGISSK (UniProt P49915) | 0.0256 | 0.431
GNB2_P62879_148+149_ELPGHTGYLSCCR (UniProt P62879) | -0.0994 | -0.832
GLA_P06280_56_FMCNLDCQEEPDSCISEK (UniProt P06280) | 0.07 | -0.0872
GNAI2_P04899-6_14_KIIHEDGYSEEECR (UniProt P04899) | -0.0805 | 0.0469
GMIP_Q9P107_529_CLETLLILCGHR (UniProt Q9P107) | 0.0572 | 0.116
GNL1_P36915_365_YKDGVVTIGCVGFPNVGK (UniProt P36915) | -0.0143 | -0.869
GOLGB1_Q14789_681_SLSAVPDIGQCHQDELER (UniProt Q14789) | -0.0231 | -0.125
GOT2_P00505_187+212_TCGFDFTGAVEDISKIPEQSVLLLHACAHNPTGVDPRPEQWK (UniProt P00505) | -0.132 | 0.151
GOLGA4_Q13439_309_EQCTLLTSEK (UniProt Q13439) | -0.00902 | -0.189
GOLGB1_Q14789_3144_KSDPEELREPQQSFSEAQQQLCNTR (UniProt Q14789) | 0.0431 | -0.388
GPD2_P43304_45_AADCISEPVNR (UniProt P43304) | -0.21 | 0.0491

Target | probe-labelled cysteine peptide fold change (10 µM) | probe-labelled cysteine peptide fold change (50 µM)
GLO1_Q04760_19+20_AEPQPPSGGLTDEAALSCCSDADPSTK (UniProt Q04760) | -0.684 | -0.738
GNPTG_Q9UJJ9_157+169_LAHVSEPSTCVYALTFETPLVCHPHALLVYPTLPEALQR (UniProt Q9UJJ9) | 0.245 | -0.122
GLG1_Q92896_767_LCPNIK (UniProt Q92896) | -0.296 | 0.29
GLUD1_P00367_376_PYEGSILEADCDILIPAASEK (UniProt P00367) | -0.111 | 0.297
GPATCH2_Q9NW75_188_TMTQPPEGCRDQDMDSDR (UniProt Q9NW75) | -0.107 | -0.348
GLRX2_Q9NS18_153_LLPLVHQCYLK (UniProt Q9NS18) | -0.235 | -0.0172
GON4L_Q3T8J9_2140_AAEATVCANNSK (UniProt Q3T8J9) | -0.29 | -0.377
GLOD4_Q9HC38_197_ALLGYADNQCK (UniProt Q9HC38) | 0.26 | 0.109
GOT2_P00505_272_HFIEQGINVCLCQSYAK (UniProt P00505) | 0.22 | 0.311
GLCCI1_Q86VQ1_445_QPISAPLFSCPDK (UniProt Q86VQ1) | -0.272 | -0.551
GLG1_Q92896_118_LAEEESCR (UniProt Q92896) | -0.263 | 0.124
GNAQ_P50148_144_SLWNDPGIQECYDR (UniProt P50148) | -0.0786 | -0.108
GPC4_O75487_341_VFQGCGPPK (UniProt O75487) | -0.24 | -0.0603
GNE_Q9Y223_303_HVPFDQFIQLVAHAGCMIGNSSCGVR (UniProt Q9Y223) | -0.0786 | 0.0743
GNAI1_P63096_66_IIHEAGYSEEECK (UniProt P63096) | -0.0126 | 0.0109
GLE1_Q53GS7_39_REDVLEECMSLPK (UniProt Q53GS7) | -0.281 | -0.388
GMPS_P49915_252_VLVLLSGGVDSTVCTALLNR (UniProt P49915) | 0.015 | 0.275
GPI_P06744_404_MIPCDFLIPVQTQHPIRK (UniProt P06744) | 0.0513 | -0.0762
GPKOW_Q92917_137_GCTPSGEGADSEPR (UniProt Q92917) | -0.229 | -0.14
GPSM1_Q86YR5_497_APSSDEECFFDLLTK (UniProt Q86YR5) | -0.125 | -0.652
GNAS_P63092_3_GCLGNSK (UniProt P63092) | -0.17 | -0.377
GPATCH8_Q9UKJ3_639_MDAPASGSACSGLNK (UniProt Q9UKJ3) | -0.016 | -0.523

Target | probe-labelled cysteine peptide fold change (10 µM) | probe-labelled cysteine peptide fold change (50 µM)
GLG1_Q92896_385_CNVENLPR (UniProt Q92896) | -0.21 | 0.0626
GLUL_P15104_183_ACLYAGVK (UniProt P15104) | 0.0233 | 0.35
GMEB1_Q9Y692_274_GIADVGLMEEVVCNIQK (UniProt Q9Y692) | 0.0817 | -0.179
GNAI2_P04899_255_LFDSICNNK (UniProt P04899) | 0.204 | -0.0265
GNL3_Q9BVP2_251_LLGGFQETCSK (UniProt Q9BVP2) | 0.0286 | 0.0355
GPHN_Q9NQX3_26_VGVLTVSDSCFR (UniProt Q9NQX3) | -0.0193 | -0.14
GMPR2_Q9P2T1_205_TGVGYPQLSAVMECADAAHGLK (UniProt Q9P2T1) | -0.0196 | -0.162
GOLGB1_Q14789_1462_QLQVELCEMK (UniProt Q14789) | -0.277 | -0.195
GLA_P06280_382_GVACNPACFITQLLPVKR (UniProt P06280) | 0.208 | 0.0432
GLG1_Q92896_324_FCENTQAGEGR (UniProt Q92896) | 0.0452 | 0.102
GPC3_P51654_72_GPTCCSR (UniProt P51654) | -0.171 | -0.229
GNL3_Q9BVP2_131_KLYCQELK (UniProt Q9BVP2) | -0.147 | -0.675
GOLGA3_Q08378_769_EDTICLLQNEK (UniProt Q08378) | -0.143 | -0.0659
GMEB2_Q9UKD1_96_MAEEGENLEAEIVYPITCGDSR (UniProt Q9UKD1) | 0.133 | -0.027
GLYR1_Q49A26_303_CDLFIQEGAR (UniProt Q49A26) | -0.0399 | 0.00249
GNE_Q9Y223_160_LAHYHVCCTR (UniProt Q9Y223) | 0.148 | 0.0426
GNS_P15586_140_SMCGYQTFFAGK (UniProt P15586) | -0.00337 | -0.0426
GPN1_Q9HCN4_21_HPVCLLVLGMAGSGK (UniProt Q9HCN4) | 0.0236 | -0.0868
GPHN_Q9NQX3_284_LSTASCPTPK (UniProt Q9NQX3) | -0.406 | -0.288
GLG1_Q92896_316_HLYFACR (UniProt Q92896) | -0.00226 | 0.17
GM2A_P17900_138_TYGLPCHCPFK (UniProt P17900) | 0.19 | 0.189
GPD2_P43304_385_NYLSCDVEVR (UniProt P43304) | -0.0198 | 0.0537

Target | probe-labelled cysteine peptide fold change (10 µM) | probe-labelled cysteine peptide fold change (50 µM)
GLG1_Q92896_269_DAHSQGEVVSCLEK (UniProt Q92896) | -0.387 | 0.00158
GLG1_Q92896_155_HTWSNNLAVLECLQDVREPENEISSDCNHLLWNYK (UniProt Q92896) | -0.224 | 0.237
GMPR2_Q9P2T1_224_GHIISDGGCSCPGDVAK (UniProt Q9P2T1) | -0.0167 | -0.135
GLYR1_Q49A26_486_CQNILQGNFKPDFYLK (UniProt Q49A26) | -0.00766 | 0.144
GMPS_P49915_137_SVREDGVFNISVDNTCSLFR (UniProt P49915) | -0.127 | -0.0644
GLG1_Q92896_671_TETGQELECLQDHLDDLVVECR (UniProt Q92896) | -0.296 | 0.182
GNB4_Q9HAV0_294_LLLAGYDDFNCNVWDTLK (UniProt Q9HAV0) | 0.0303 | 0.0959
GLO1_Q04760_139_GFGHIGIAVPDVYSACK (UniProt Q04760) | -0.0322 | 0.0591
GPS1_Q13098_67_LQFIADHCPTLR (UniProt Q13098) | -0.0482 | -0.0247
GOLGB1_Q14789_2664_IAELEEELVCVQK (UniProt Q14789) | -0.0412 | 0.127
GNB1_P62873_148+149_ELAGHTGYLSCCR (UniProt P62873) | -0.185 | -0.407
GNB1L_Q9BYB4_206_IACHEEPVMDLDFDSQK (UniProt Q9BYB4) | -0.306 | -0.28
GNPDA1_P46926_239_TVFVCDEDATLELK (UniProt P46926) | 0.043 | -0.0344
GMPS_P49915_4_ALCNGDSK (UniProt P49915) | -0.313 | -0.226
GPD2_P43304_285_CVINATGPFTDSVR (UniProt P43304) | 0.183 | 0.169
GNB4_Q9HAV0_271_ADQELLLYSHDNIICGITSVAFSK (UniProt Q9HAV0) | 0.0903 | -0.00629
GNL3_Q9BVP2_280_QEQMCNVGVSMGLTR (UniProt Q9BVP2) | 0.183 | -0.104
GNL1_P36915_517_LSLCFHPPGYSEQK (UniProt P36915) | 0.117 | -0.0318
GLOD4_Q9HC38_221_IAFSCPQK (UniProt Q9HC38) | 0.465 | 0.094
